This is an account of results in patent US20220098681A1.

Results are given in words; binding and its absence hold for the method and conditions named. In cells and extracts the contact can be indirect. Some binding calls cover weakened binding; strength is not graded here. For part of these data: Tags and fused reporters may be left off the sequences shown.

Assay [1] has as its target FLAG-tagged CHIKV nsP3 (pCI-neo-3×FLAG plasmid expressing the CHIKV nsP3) (chikungunya virus) (UniProt Q8JUX6). Nature of the assay: co-immunoprecipitation.
Assay [2] has the same target. Nature of the assay: summary of the co-immunoprecipitation and pull-down experiments.
Assay [3] has the same target. As to the kind of experiment: co-immunoprecipitation (data not shown).

B1: FHL1A-R4* fusion protein (FHL1A fused to a randomized peptide sequence of HVD-R4) (protein)
chain: AEKFDCHYCRDPLQGKKYVQKDGHHCCLKCFDKFCANTCVECRKPIGADSKEVHYKNRFWHDTCFRCAKCLHPLANETFVAKDNKILCNKCTTREDSPKCKGCFKAIVAGDQNVEYKGTVWHKDCFTCSNCKQVIGTGSFFPKGEDFYCVTCHETKFAKHCVKCNKAITSGGITYQDQPWHADCFVCVTCSKKLAGQRFTAVEDQYYCVDCYKNFVAKKCAGCKNPITGFGKGSSVVAYEGQSWHDYCFHCKKCSVNLANKRFVFHQEQVYCPDCAKKL
Consider B1, for which the binding result in assay [1] is “binds”.

B2: endogenous FHL1 in 293T cells (protein)
chain: B1 chain
In the case of B2, the binding entry in assay [2] is recorded as “binds”.

B3: murine FHL1 (protein)
chain: MSEKFDCHYCRDPLQGKKYVQKDGRHCCLKCFDKFCANTCVDCRKPISADAKEVHYKNRYWHDNCFRCAKCLHPLASETFVSKDGKILCNKCATREDSPRCKGCFKAIVAGDQNVEYKGTVWHKDCFTCSNCKQVIGTGSFFPKGEDFYCVTCHETKFAKHCVKCNKAITSGGITYQDQPWHAECFVCVTCSKKLAGQRFTAVEDQYYCVDCYKNFVAKKCAGCKNPITGFGKGSSVVAYEGQSWHDYCFHCKKCSVNLANKRFVFHNEQVYCPDCAKKL
As for B3, the binding entry in assay [3] is on record as “binds”.
